Data: PubChem BioAssay AID2099 (Broad Institute, 2009)
Where “and” joins values, the source holds several entries; their conditions need not be identical. Equal entries are not always repeated. In all, about 330,000 compounds went through this assay and about 230 (0.07%) were called active. This list was built around the results that the source calls inconclusive (neither active nor inactive); the mix of calls is not that of the screen.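 The calls were made as follows: active = more than half of a compound's replicate wells show inhibition beyond 50%, single wells judged on their own value; inconclusive = some, but no more than half, of replicates pass 50% inhibition; inactive = no replicate passes 50% inhibition.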

Chains of the proteins cited; added tags and fusions are not shown. Residues count along the entry.
UniProt Q9H3R0, 1-420 limits assumed: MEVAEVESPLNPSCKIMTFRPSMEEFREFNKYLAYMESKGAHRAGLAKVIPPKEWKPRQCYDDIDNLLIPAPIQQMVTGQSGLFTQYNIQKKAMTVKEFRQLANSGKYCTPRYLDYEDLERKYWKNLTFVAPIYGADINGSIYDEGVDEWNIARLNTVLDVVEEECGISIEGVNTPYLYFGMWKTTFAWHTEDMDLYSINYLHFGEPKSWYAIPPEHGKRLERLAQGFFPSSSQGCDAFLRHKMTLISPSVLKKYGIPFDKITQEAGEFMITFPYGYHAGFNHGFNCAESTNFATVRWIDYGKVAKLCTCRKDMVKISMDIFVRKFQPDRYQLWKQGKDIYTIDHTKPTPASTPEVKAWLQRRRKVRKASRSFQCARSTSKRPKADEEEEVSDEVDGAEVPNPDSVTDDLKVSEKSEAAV

Target: Lysine-specific demethylase 4C (Homo sapiens) (UniProt Q9H3R0)
Test: inhibitors of GASC-1 histone demethylase, primary screen, biochemical, fluorescence, DELFIA europium (AID 2099);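 also: signal counts dimethyl H3K9 product captured on neutravidin plate; 0% = median of DMSO wells and 100% = 0.3 times that DMSO median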
Details: GST-JMJD2C(1-420) H3K9me3 demethylation, at 2.35 µM, hits give high values

SMILES | inhibition
CCCC[n+]1c(-c2ccc(Cl)cc2Cl)csc1Nc1ccccc1 | inactive: 0.0648%
CSCCC(NS(=O)(=O)c1ccccc1)C(=O)OCc1cc(=O)oc2cc(O)ccc12 (stereo unspecified) | inconclusive: -96.2%
CCN1C(=O)[C@H]2[C@@H](c3ccc(-c4ccc5c(c4)OCO5)c(OC)c3)N[C@@](Cc3ccccc3)(C(=O)OC)[C@H]2C1=O | inconclusive: -154%
COC(C[C@H](O)CC(=O)COCc1ccccc1)OC | inconclusive: -77.9%
CCOC(=O)CSc1nc(C)cc2c1C(=O)OC2 | inconclusive: -58%
c1ccc(-c2nnc(CSc3nnc(-c4ccncc4)n3Cc3ccco3)o2)cc1 | inconclusive: -67%
O=C(CCc1ccc(S(=O)(=O)NCc2ccccc2)cc1)NCc1ccc2c(c1)OCO2 | active: 52.4%
COC(C[C@@H]1O[C@@H]1[C@@H](O)[C@H](C)OCc1ccccc1)OC | inconclusive: -181%
Cc1c(Cl)cccc1NC(=S)NC1CCCC1 | inconclusive: -84.5%
COc1ccc(S(=O)(=O)n2nc(OC(=O)c3cccs3)cc2NC(=O)c2cccs2)cc1 | inactive: 0.0361%
CCOc1ccc(Nc2nc(N)nc(CSC(=S)N3CCN(c4ccccc4)CC3)n2)cc1 | inconclusive: -29.5%
COc1ccc(-c2cc3ccc(O)cc3oc2=O)cc1OC | inconclusive: -51.6%
COc1cc(C(C(=O)NC2CCCCC2)N(C(=O)Cc2c[nH]c3ccccc23)c2ccc(C)cc2)cc(OC)c1OC (stereo unspecified) | inactive: 7.84%
COC(=O)[C@@H](NCc1cccc(CN[C@H](C(=O)OC)c2ccccc2)c1)c1ccccc1 | inconclusive: -361%
Nc1ccn(CC(=O)NCCc2ccccn2)c(=O)n1 | inactive: 2.95%
COc1ccccc1CNC(=O)COC(=O)C1CCN(S(=O)(=O)c2ccc(C)c(C)c2)CC1 | inconclusive: -170%
Cn1c(=O)cc(SCC(=O)NCC2COc3ccccc3O2)c2ccccc21 (stereo unspecified) | inactive: -0.299%
CCNC(=S)NNC(=O)c1cc(-c2cccc(OCC)c2)nc2ccccc12 | inconclusive: -231%
Cc1nc(Nc2ccc(O)cc2)c2c3c(sc2n1)CCCC3 | inactive: -1.88%
CCN(CC)c1ccc2nc3ccccc3[n+](CC)c2c1 | inactive: 14.8%
O=C(NC1CCCC1)C(c1ccccc1)N(Cc1ccccc1)C(=O)c1csnn1 (stereo unspecified) | inactive: -0.829%
CC(=O)Nc1ccc(NC(=O)CCNC(=O)c2ccccc2Cl)cc1 | inactive: -3.81%

SMILES | inhibition
CN(C)c1oc(-c2cccs2)nc1C#N | inactive: -9.06%
Cc1ccc(C(=O)Nc2ccc(S(=O)(=O)N3CCN(C)CC3)cc2)o1 | inconclusive: -142%
COc1cccc(-c2sc3ccccc3c2-c2ccc(OCCN3CCCC3)cc2)c1 | inactive: -3.78%
O=C(NN=C1c2ccccc2-c2ccccc21)c1ccccc1Br | inconclusive: -114%
COc1ccc(CC(=O)OCC(=O)NCCNC(=O)COC(=O)Cc2ccc(OC)cc2)cc1 | inconclusive: -89.3%
O=C(C1CC(=O)N(c2ccc(Br)cc2)C1)N1CCCC1 (stereo unspecified) | inconclusive: -62%
O=C(Nc1ccc(Oc2ccccc2)cc1)C1CCN(c2c3c(nc4ncnn24)CCC3)CC1 | inconclusive: -77.4%
O=C(NCCC(=O)N(CCc1ccccc1)Cc1ccccc1)c1ccc(Br)cc1 | inactive: -4.58%
C[C@H]1CN(CCc2ccccc2)C(=O)[C@@H]1CC(=O)NCc1ccccc1 | active: 60.6%
CC(=O)c1c(N2CCCC2)[nH]c(-c2ccccc2)nc1=S | inconclusive: -148%
COC(=O)COc1ccc(/C=C2/SC(=O)N(CC(=O)N3CCCC3)C2=O)cc1Br | inconclusive: -67%
CC1CCN(Cc2c(C(=O)N/N=C/c3ccccc3O)nnn2-c2nonc2N)CC1 | inconclusive: -124%
CCOC(=O)c1c(-c2ccc(C)cc2)csc1/N=C(\C)C1=C(O)c2ccccc2C1=O | inconclusive: -57.9%
O=c1oc(-c2cccnc2)nc2ccccc12 | inconclusive: -53.1%
O=[N+]([O-])c1cccc(S(=O)(=O)Nc2ccc3cn[nH]c3c2)c1 | inactive: 5.23%
CC(O)(CS(=O)(=O)Cc1ccccc1)C(=O)Nc1cccc(C(F)(F)F)c1 (stereo unspecified) | inconclusive: -59.3%
CCN(C(=O)COC(=O)CCc1c[nH]c2ccccc12)c1c(N)n(Cc2ccccc2)c(=O)[nH]c1=O | inconclusive: -62.6%
CCOC(=O)C1CCN(S(=O)(=O)c2ccc(-n3cnnn3)c(C)c2)CC1 | inconclusive: -172%
O=C(NCC(c1ccco1)N1CCOCC1)c1cccc(Cl)c1 (stereo unspecified) | inconclusive: -63.9%
COc1ccc(OCC(=O)N/N=C/C(C)=C/c2ccco2)c(Br)c1 | active: 67%
COc1ccc(NS(=O)(=O)c2cc(-c3cnc(C4CC4)o3)ccc2C)cc1 | inactive: 0.282%
CCCCc1ccc(S(N)(=O)=O)cc1 | inactive: 1.85%

SMILES | inhibition
Cn1cc(S(=O)(=O)Nc2ccc3c(c2)OCCO3)cn1 | inconclusive: -59.8%
CCOc1ccc(N(CC)C(=O)CCNC(=O)Cn2ccc3ccccc3c2=O)cc1 | inconclusive: -74.6%
CNc1nc2c(c(=O)[nH]c(=O)n2C)n1CCOC | inconclusive: -59.1%
O=C(Nc1ccc(S(=O)(=O)N2CCCC2)cc1)N1c2ccccc2Sc2ccccc21 | inactive: 2.18%
CC(=O)N1c2ccc(S(=O)(=O)N3CCCCC3)cc2CC1C(=O)NCc1ccc(N(C)C)cc1 (stereo unspecified) | inactive: -30.3%
O=C(NC1(O)C(=O)c2ccccc2C1=O)c1ccccc1 | inactive: 18.2%
O=C(Nc1ccc(N2CCOCC2)c(Cl)c1)c1c(F)c(F)c(F)c(F)c1F | inactive: 14.3%
C[C@H](CO)N1C[C@H](C)[C@@H](CN(C)Cc2ccc3c(c2)OCO3)Oc2ccc(NC(=O)Cn3cnnn3)cc2C1=O | active: 60.5%
COC(=O)c1ccccc1S(=O)(=O)N1CCC(NC(=O)c2ccccc2)CC1 | inconclusive: -55.6%
Cc1ccc(NC(=O)Nc2ccc(F)c(Cl)c2)cc1 | inconclusive: -83.1%
Cn1c(-c2ccc(F)cc2)cnc1NCc1ccc(F)cc1 | inconclusive: -51%
CCCCN(C(=O)c1ccc(Br)o1)C1CCS(=O)(=O)C1 (stereo unspecified) | inconclusive: -131%
CCOC(=O)CSc1nc(C)c(C(C)=O)cc1C(N)=O | inactive: -0.0912%
Cc1c(C2(O)CCCCC2)[nH]c2cnccc12 | inactive: -2.56%
C[C@H](NC(=O)c1ccc2c(c1)OCO2)c1nnc2ccccn12 | inconclusive: -104%
COc1ccc(-c2nc(NC(=O)c3ccc(OCC(=O)Nc4ccc(F)cc4)c(OC)c3)sc2C)cc1 | inactive: -1.85%
CCOC(=O)C1CCN(S(=O)(=O)c2ccc3c(c2)NC(=O)C(C)C(=O)N3)CC1 (stereo unspecified) | inactive: 73.4%
CC1CCCC(NC(=O)c2cccs2)C1C (stereo unspecified) | inactive: 7.28%
CCCCn1c(N)c(N(Cc2ccccc2OC)C(=O)c2sccc2C)c(=O)[nH]c1=O | inconclusive: -81.1%
O=c1cc(NC2CCCCCC2)[nH]c(=O)[nH]1 | active: 54.2%
C=CCn1c(N)c(C(=O)NCC2CCCO2)sc1=S (stereo unspecified) | inactive: -4.08%
Cc1cc(C)c2c(c1)/C(=N/Nc1ccc(S(N)(=O)=O)cc1[N+](=O)[O-])CCC2 | inactive: -1.3%

Sorted by count of non-hydrogen atoms (largest number first): some entries from above.
SMILES | inhibition
CSCCC(NS(=O)(=O)c1ccccc1)C(=O)OCc1cc(=O)oc2cc(O)ccc12 (stereo unspecified) | inconclusive: -96.2%
Cn1c(=O)cc(SCC(=O)NCC2COc3ccccc3O2)c2ccccc21 (stereo unspecified) | inactive: -0.299%
C[C@H]1CN(CCc2ccccc2)C(=O)[C@@H]1CC(=O)NCc1ccccc1 | active: 60.6%
COc1ccc(-c2cc3ccc(O)cc3oc2=O)cc1OC | inconclusive: -51.6%
CCN(CC)c1ccc2nc3ccccc3[n+](CC)c2c1 | inactive: 14.8%
Cc1ccc(NC(=O)Nc2ccc(F)c(Cl)c2)cc1 | inconclusive: -83.1%

(cont.)

SMILES | inhibition
CCc1cc(=O)oc2cc(OCC(=O)N3CCC(C(N)=O)CC3)ccc12 | inconclusive: -174%
CC(C)=CCN1CCN(Cc2cn[nH]c2C2CCCCC2)CC1CCO (stereo unspecified) | active: 53.3%
COC(=O)CNC(=O)Cc1c(C)n(C(=O)c2ccc(Cl)cc2)c2ccc(OC)cc12 | inconclusive: -56.7%
Cc1cc(C(=O)CSc2nnc(Cc3ccccc3)o2)c(C)n1Cc1ccc2c(c1)OCO2 | inactive: 3.29% and inactive: -23.8%
COc1ccc(-c2cn(CCC(=O)NCc3ccc(C)cc3)c(-c3ccncc3)n2)cc1 | inactive: -6.49%
CC1=C(C(=O)OCc2ccccc2)C(c2ccccc2)NC(=O)N1 (stereo unspecified) | inactive: -7.41%
Cc1ccccc1-c1nnn(CC(=O)N(C)CC(=O)Nc2ccccc2C(F)(F)F)n1 | inconclusive: -70.8%
COc1cc(NC(=O)[C@@H](NC(=O)N2CCn3c2nc2ccccc23)C(C)C)cc(OC)c1 | inconclusive: -94.3%
Cc1ccc(-c2noc(CN3CCN(C(c4ccccc4)c4ccccc4)CC3)n2)cc1 | inconclusive: -74.9%
COc1ccc([N+](=O)[O-])cc1NC(=O)CSc1nc(C)cc(C)n1 | inactive: -0.836%
O=C(NCc1ccccc1)c1ccc2ccccc2n1 | inactive: -4.92%
Cc1c(CCC(=O)N2CCC(C(=O)O)CC2)c(=O)oc2cc3oc4c(c3cc12)CCCC4 | inconclusive: -453%
O=c1ccc(Oc2nc(N3CCCCC3)nc(N3CCCCC3)n2)n[nH]1 | inconclusive: -75%
CCOc1ccccc1N1CCN(C(=O)CN2C(=O)NC3(CCCC3)C2=O)CC1 | inconclusive: -130%
O=C(N/N=C/c1ccncc1)c1sc2ccccc2c1Cl | inconclusive: -97.9%
COc1cccc2sc(Nc3nnc(-c4cccs4)o3)nc12 | inconclusive: -80.2%
CN(Cc1ccc(F)cc1)C(=O)CNC(=O)C1CCCCC1 | inconclusive: -63%
Cc1ccc(S(=O)(=O)N2CCOCCOCCOCCOCCOCC2)cc1 | inconclusive: -57.2%
Cc1ccc(S(=O)(=O)c2c(C)nn(-c3ccccc3)c2OC(=O)c2ccco2)cc1 | inactive: 1.07%
CC12CCC(=O)N1C(C(=O)Nc1ccc(SC(F)F)cc1)CS2 (stereo unspecified) | inconclusive: -152%
